# Reference: the supplement of paper PMC10032668
# Amino acid sequences for entries named in this document (tags omitted).
# CAPRIN1, Q14444, UniProt Q14444, whole entry: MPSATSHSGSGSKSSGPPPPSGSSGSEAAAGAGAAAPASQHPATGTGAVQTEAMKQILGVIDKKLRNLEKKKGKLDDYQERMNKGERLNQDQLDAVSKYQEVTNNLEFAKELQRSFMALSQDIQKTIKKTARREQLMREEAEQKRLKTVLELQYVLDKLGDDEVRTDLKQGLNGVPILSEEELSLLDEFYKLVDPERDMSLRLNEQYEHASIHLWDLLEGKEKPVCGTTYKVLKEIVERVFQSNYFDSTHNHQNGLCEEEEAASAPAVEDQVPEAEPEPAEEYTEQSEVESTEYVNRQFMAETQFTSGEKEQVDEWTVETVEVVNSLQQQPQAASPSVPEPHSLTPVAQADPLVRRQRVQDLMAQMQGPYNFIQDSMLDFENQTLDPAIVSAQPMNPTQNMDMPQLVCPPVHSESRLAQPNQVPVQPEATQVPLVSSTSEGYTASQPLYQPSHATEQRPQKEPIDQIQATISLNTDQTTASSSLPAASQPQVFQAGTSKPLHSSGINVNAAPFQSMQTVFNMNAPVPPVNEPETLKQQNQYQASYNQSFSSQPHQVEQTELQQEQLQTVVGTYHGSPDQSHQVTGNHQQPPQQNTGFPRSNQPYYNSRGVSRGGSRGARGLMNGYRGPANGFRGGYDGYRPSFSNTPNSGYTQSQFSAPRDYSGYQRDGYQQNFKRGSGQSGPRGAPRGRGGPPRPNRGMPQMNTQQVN
# CKS2, P33552, UniProt P33552, whole entry: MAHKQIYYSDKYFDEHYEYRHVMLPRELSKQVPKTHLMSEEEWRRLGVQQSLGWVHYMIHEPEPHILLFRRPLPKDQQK
# FAM168B, A1KXE4, UniProt A1KXE4, whole entry: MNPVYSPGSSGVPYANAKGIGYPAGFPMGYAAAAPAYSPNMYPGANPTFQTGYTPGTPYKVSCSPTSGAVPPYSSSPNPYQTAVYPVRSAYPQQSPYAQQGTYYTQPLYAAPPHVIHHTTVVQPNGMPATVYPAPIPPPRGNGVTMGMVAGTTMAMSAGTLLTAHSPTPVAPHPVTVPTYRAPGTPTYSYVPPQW
# HNRNPU, Q00839, UniProt Q00839, whole entry: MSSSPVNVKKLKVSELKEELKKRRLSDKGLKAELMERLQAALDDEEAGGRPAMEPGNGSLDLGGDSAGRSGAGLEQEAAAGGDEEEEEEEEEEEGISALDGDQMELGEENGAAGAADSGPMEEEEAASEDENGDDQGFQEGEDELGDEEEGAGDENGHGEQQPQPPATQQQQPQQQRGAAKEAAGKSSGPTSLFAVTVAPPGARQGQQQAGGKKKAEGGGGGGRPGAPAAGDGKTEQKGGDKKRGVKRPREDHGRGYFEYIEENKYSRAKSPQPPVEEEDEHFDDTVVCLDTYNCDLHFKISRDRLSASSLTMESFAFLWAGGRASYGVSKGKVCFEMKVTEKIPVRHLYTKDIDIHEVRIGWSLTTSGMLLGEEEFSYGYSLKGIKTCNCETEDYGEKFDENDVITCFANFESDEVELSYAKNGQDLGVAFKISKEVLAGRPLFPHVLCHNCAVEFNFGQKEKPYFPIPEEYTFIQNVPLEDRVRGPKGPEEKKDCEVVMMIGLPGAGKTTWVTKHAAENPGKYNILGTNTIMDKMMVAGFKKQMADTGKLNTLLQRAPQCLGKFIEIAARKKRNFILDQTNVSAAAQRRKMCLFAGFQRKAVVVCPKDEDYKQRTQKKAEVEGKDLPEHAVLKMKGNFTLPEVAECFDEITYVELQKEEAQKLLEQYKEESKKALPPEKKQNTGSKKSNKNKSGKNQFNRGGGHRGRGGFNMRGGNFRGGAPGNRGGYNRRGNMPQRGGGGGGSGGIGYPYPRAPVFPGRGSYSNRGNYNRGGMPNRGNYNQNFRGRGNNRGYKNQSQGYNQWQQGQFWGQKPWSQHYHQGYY
# KHDRBS1, Q07666, UniProt Q07666, whole entry: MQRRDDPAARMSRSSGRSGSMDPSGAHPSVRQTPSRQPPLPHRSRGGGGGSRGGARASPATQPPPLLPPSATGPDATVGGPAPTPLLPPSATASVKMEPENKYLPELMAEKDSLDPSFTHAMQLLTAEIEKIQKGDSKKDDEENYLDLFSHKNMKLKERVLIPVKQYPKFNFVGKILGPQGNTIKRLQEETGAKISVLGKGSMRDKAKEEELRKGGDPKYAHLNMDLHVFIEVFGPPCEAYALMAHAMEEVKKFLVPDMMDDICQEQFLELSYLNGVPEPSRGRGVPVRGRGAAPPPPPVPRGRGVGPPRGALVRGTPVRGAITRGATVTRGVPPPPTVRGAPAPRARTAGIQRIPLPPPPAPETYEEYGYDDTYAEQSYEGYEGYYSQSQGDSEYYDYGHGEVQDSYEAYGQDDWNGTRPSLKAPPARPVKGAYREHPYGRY
# MTPN, P58546, UniProt P58546, whole entry: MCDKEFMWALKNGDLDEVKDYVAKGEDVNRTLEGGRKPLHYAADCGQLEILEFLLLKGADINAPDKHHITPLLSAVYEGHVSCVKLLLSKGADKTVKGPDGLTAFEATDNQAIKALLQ
# EP300, Q09472, UniProt Q09472, whole entry: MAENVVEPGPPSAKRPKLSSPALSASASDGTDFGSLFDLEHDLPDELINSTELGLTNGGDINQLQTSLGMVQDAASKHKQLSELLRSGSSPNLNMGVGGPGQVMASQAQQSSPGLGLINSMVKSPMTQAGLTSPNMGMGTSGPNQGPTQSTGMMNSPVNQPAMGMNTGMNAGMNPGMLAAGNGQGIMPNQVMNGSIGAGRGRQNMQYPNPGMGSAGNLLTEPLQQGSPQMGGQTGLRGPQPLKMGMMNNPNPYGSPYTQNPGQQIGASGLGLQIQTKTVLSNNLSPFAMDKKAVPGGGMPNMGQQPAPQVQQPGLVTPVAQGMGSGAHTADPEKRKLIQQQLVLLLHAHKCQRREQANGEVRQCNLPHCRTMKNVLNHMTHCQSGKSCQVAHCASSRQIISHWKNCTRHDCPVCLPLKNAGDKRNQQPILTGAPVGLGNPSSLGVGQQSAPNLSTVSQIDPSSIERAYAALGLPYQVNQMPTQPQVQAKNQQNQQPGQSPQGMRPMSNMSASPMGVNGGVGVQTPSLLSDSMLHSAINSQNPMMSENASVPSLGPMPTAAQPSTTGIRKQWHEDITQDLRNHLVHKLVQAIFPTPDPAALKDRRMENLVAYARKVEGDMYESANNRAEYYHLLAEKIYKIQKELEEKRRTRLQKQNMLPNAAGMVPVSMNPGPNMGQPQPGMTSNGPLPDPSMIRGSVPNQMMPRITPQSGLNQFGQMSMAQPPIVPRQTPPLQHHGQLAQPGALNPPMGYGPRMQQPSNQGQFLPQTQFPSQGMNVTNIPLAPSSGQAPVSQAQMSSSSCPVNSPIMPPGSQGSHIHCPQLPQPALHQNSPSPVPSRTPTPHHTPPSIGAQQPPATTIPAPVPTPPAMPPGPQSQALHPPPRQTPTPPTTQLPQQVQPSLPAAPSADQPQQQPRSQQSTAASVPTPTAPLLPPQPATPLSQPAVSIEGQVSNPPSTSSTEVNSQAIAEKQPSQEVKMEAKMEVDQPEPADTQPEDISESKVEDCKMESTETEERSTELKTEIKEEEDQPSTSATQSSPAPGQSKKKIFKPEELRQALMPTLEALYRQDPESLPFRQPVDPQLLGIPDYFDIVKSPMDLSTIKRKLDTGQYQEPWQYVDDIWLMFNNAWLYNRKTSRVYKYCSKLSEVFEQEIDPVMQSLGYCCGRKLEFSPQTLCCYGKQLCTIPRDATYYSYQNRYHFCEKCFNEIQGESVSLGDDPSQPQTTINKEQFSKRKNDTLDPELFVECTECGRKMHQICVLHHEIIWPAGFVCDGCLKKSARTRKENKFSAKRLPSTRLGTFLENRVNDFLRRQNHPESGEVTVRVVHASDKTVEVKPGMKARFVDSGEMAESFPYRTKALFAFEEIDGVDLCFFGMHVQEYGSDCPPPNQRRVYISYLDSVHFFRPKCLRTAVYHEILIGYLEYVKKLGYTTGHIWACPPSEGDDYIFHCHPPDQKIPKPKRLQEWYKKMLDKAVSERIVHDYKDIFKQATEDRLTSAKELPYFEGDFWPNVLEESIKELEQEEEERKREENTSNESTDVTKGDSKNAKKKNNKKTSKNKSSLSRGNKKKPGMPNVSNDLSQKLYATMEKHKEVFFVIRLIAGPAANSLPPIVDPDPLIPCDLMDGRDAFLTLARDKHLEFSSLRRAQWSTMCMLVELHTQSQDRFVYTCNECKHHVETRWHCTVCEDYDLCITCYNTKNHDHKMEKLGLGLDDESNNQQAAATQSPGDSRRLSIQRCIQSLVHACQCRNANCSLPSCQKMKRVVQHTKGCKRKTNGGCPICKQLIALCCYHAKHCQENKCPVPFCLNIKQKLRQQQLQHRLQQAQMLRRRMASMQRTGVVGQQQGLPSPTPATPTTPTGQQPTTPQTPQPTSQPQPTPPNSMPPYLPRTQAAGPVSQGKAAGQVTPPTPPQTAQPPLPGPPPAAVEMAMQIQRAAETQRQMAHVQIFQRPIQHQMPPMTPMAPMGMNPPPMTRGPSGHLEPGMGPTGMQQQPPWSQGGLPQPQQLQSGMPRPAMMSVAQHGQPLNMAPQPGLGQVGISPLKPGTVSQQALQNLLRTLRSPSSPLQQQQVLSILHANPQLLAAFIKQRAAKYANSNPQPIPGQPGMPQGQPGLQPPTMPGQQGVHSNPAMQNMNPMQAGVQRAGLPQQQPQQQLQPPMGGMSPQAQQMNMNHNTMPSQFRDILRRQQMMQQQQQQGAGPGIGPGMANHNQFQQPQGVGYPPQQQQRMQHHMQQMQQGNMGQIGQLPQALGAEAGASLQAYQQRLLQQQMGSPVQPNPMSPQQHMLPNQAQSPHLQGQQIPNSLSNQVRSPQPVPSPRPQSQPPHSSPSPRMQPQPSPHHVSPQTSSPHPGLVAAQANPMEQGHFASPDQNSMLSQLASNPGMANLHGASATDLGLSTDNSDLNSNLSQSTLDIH
# HIST1H1C, P16403, UniProt P16403, whole entry: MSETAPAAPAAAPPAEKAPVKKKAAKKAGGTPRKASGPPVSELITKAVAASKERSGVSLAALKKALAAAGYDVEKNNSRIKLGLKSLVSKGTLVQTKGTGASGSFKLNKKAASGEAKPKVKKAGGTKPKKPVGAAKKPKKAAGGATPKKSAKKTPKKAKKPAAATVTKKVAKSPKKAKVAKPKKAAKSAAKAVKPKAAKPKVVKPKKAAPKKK
# ± gives the standard deviation of the averaged measurements. This is one part of the list. The list holds hits alone, and they repeat only in part.
# Legend:
# Assay in all cases: PRISMA enrichment of interactor (LFQ) in peptide spot vs all other peptide spots (log2 fold change); higher = stronger / more specific binding of the interactor to the peptide
# ALYREF, Q86V81 = target: ALYREF, Q86V81
# Method: (§1)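 PRISMA: 15-aa overlapping tiles (offset 8 aa) of 60 microproteins, plus SOS1/GLUT1 control peptides, were spot-synthesized on cellulose membranes in triplicate. Membranes were incubated with benzonase-treated HEK293T lysate, and bound proteins were identified by LC-MS/MS with LFQ. Enrichment is the log2 fold change of each protein in one spot versus all other spots. Only interactors passing the significance cutoff are listed.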
# BOLA3, Q53S33 = target: BOLA3, Q53S33
# Method: as §1
# C19orf53, Q9UNZ5 = target: C19orf53, Q9UNZ5
# Method: as §1
# CAPRIN1, Q14444 = target: CAPRIN1, Q14444
# Method: as §1
# CHTOP, Q9Y3Y2 = target: CHTOP, Q9Y3Y2
# Method: as §1
# CIRBP, Q14011 = target: CIRBP, Q14011
# Method: as §1
# CKS2, P33552 = target: CKS2, P33552
# Method: as §1
# COPE, O14579 = target: COPE, O14579
# Method: as §1
# CSRP2, Q16527 = target: CSRP2, Q16527
# Method: as §1
# DERPC, P0CG12 = target: DERPC, P0CG12
# Method: as §1
# EIF4H, Q15056 = target: EIF4H, Q15056
# Method: as §1
# EWSR1, Q01844 = target: EWSR1, Q01844
# Method: as §1
# FAM168B, A1KXE4 = target: FAM168B, A1KXE4
# Method: as §1
# FKBP2, P26885 = target: FKBP2, P26885
# Method: as §1
# FUS, P35637 = target: FUS, P35637
# Method: as §1
# G3BP2, Q9UN86 = target: G3BP2, Q9UN86
# Method: as §1
# GABARAPL2, P60520 = target: GABARAPL2, P60520
# Method: as §1
# GAR1, Q9NY12 = target: GAR1, Q9NY12
# Method: as §1
# HIRIP3, Q9BW71 = target: HIRIP3, Q9BW71
# Method: as §1
# HNRNPA0, Q13151 = target: HNRNPA0, Q13151
# Method: as §1
# HNRNPA1, P09651 = target: HNRNPA1, P09651
# Method: as §1
# HNRNPA2B1, P22626 = target: HNRNPA2B1, P22626
# Method: as §1
# HNRNPA3, P51991 = target: HNRNPA3, P51991
# Method: as §1
# HNRNPU, Q00839 = target: HNRNPU, Q00839
# Method: as §1
# KHDRBS1, Q07666 = target: KHDRBS1, Q07666
# Method: as §1
# LSM12, Q3MHD2 = target: LSM12, Q3MHD2
# Method: as §1
# LSM14A, Q8ND56 = target: LSM14A, Q8ND56
# Method: as §1
# LUC7L3, O95232 = target: LUC7L3, O95232
# Method: as §1
# MAPK1IP1L, Q8NDC0 = target: MAPK1IP1L, Q8NDC0
# Method: as §1
# MTPN, P58546 = target: MTPN, P58546
# Method: as §1
# NOL9, Q5SY16 = target: NOL9, Q5SY16
# Method: as §1
# PCLAF, Q15004 = target: PCLAF, Q15004
# Method: as §1
# PLS3, P13797 = target: PLS3, P13797
# Method: as §1
# POLR2D, O15514 = target: POLR2D, O15514
# Method: as §1
# RBM3, P98179 = target: RBM3, P98179
# Method: as §1
# SERF2, P84101 = target: SERF2, P84101
# Method: as §1
# SF1, Q15637 = target: SF1, Q15637
# Method: as §1
# SFPQ, P23246 = target: SFPQ, P23246
# Method: as §1
# SMNDC1, O75940 = target: SMNDC1, O75940
# Method: as §1
# STMN2, Q93045 = target: STMN2, Q93045
# Method: as §1
# SUGP1, Q8IWZ8 = target: SUGP1, Q8IWZ8
# Method: as §1
# UQCRFS1, P47985 = target: UQCRFS1, P47985
# Method: as §1
# ZNF706, Q9Y5V0 = target: ZNF706, Q9Y5V0
# Method: as §1
# hCG_2014768 = target: hCG_2014768
# Method: as §1
# AP2A1, O95782 = target: AP2A1, O95782
# Method: as §1
# AP2B1, P63010 = target: AP2B1, P63010
# Method: as §1
# ATP5PO, P48047 = target: ATP5PO, P48047
# Method: as §1
# BCKDK, O14874 = target: BCKDK, O14874
# Method: as §1
# C11orf98, E9PRG8 = target: C11orf98, E9PRG8
# Method: as §1
# C12orf65, Q9H3J6 = target: C12orf65, Q9H3J6
# Method: as §1
# CCDC137, Q6PK04 = target: CCDC137, Q6PK04
# Method: as §1
# CCDC59, Q9P031 = target: CCDC59, Q9P031
# Method: as §1
# CCDC77, Q9BR77 = target: CCDC77, Q9BR77
# Method: as §1
# CCDC86, Q9H6F5 = target: CCDC86, Q9H6F5
# Method: as §1
# CGGBP1, Q9UFW8 = target: CGGBP1, Q9UFW8
# Method: as §1
# CLTA, P09496 = target: CLTA, P09496
# Method: as §1
# CSNK1A1, P48729 = target: CSNK1A1, P48729
# Method: as §1
# CSNK1D, P48730 = target: CSNK1D, P48730
# Method: as §1
# CSNK1E, P49674 = target: CSNK1E, P49674
# Method: as §1
# CXorf56, Q9H5V9 = target: CXorf56, Q9H5V9
# Method: as §1
# DECR1, Q16698 = target: DECR1, Q16698
# Method: as §1
# EMG1, Q92979 = target: EMG1, Q92979
# Method: as §1
# EP300, Q09472 = target: EP300, Q09472
# Method: as §1
# FAM32A, Q9Y421 = target: FAM32A, Q9Y421
# Method: as §1
# FAM83D, Q9H4H8 = target: FAM83D, Q9H4H8
# Method: as §1
# FBXO5, Q9UKT4 = target: FBXO5, Q9UKT4
# Method: as §1
# H1FX, Q92522 = target: H1FX, Q92522
# Method: as §1
# HIST1H1C, P16403 = target: HIST1H1C, P16403
# Method: as §1
binder,measurement,setting,value
MVLGADAVWLWIAPY [GAS5],PRISMA enrichment of interactor (log2),"ALYREF, Q86V81",5.99
same,PRISMA enrichment of interactor (log2),"BOLA3, Q53S33",4.48
same,PRISMA enrichment of interactor (log2),"C19orf53, Q9UNZ5",6.99
same,PRISMA enrichment of interactor (log2),"CAPRIN1, Q14444",5.75
same,PRISMA enrichment of interactor (log2),"CHTOP, Q9Y3Y2",5.98
same,PRISMA enrichment of interactor (log2),"CIRBP, Q14011",5.63
same,PRISMA enrichment of interactor (log2),"CKS2, P33552",5.01
same,PRISMA enrichment of interactor (log2),"COPE, O14579",5.6
same,PRISMA enrichment of interactor (log2),"CSRP2, Q16527",6.94
same,PRISMA enrichment of interactor (log2),"DERPC, P0CG12",5.11
same,PRISMA enrichment of interactor (log2),"EIF4H, Q15056",5.39
same,PRISMA enrichment of interactor (log2),"EWSR1, Q01844",7.24
same,PRISMA enrichment of interactor (log2),"FAM168B, A1KXE4",4.89
same,PRISMA enrichment of interactor (log2),"FKBP2, P26885",4.16
same,PRISMA enrichment of interactor (log2),"FUS, P35637",6.69
same,PRISMA enrichment of interactor (log2),"G3BP2, Q9UN86",6.04
same,PRISMA enrichment of interactor (log2),"GABARAPL2, P60520",5.98
same,PRISMA enrichment of interactor (log2),"GAR1, Q9NY12",4.73
same,PRISMA enrichment of interactor (log2),"HIRIP3, Q9BW71",5.22
same,PRISMA enrichment of interactor (log2),"HNRNPA0, Q13151",5.17
same,PRISMA enrichment of interactor (log2),"HNRNPA1, P09651",5.8
same,PRISMA enrichment of interactor (log2),"HNRNPA2B1, P22626",5
same,PRISMA enrichment of interactor (log2),"HNRNPA3, P51991",5.42
same,PRISMA enrichment of interactor (log2),"HNRNPU, Q00839",5.28
same,PRISMA enrichment of interactor (log2),"KHDRBS1, Q07666",6.63
same,PRISMA enrichment of interactor (log2),"LSM12, Q3MHD2",5.44
same,PRISMA enrichment of interactor (log2),"LSM14A, Q8ND56",4.4
same,PRISMA enrichment of interactor (log2),"LUC7L3, O95232",4.83
same,PRISMA enrichment of interactor (log2),"MAPK1IP1L, Q8NDC0",3.78
same,PRISMA enrichment of interactor (log2),"MTPN, P58546",4.52
same,PRISMA enrichment of interactor (log2),"NOL9, Q5SY16",4.38
same,PRISMA enrichment of interactor (log2),"PCLAF, Q15004",4.98
same,PRISMA enrichment of interactor (log2),"PLS3, P13797",5.8
same,PRISMA enrichment of interactor (log2),"POLR2D, O15514",4.98
same,PRISMA enrichment of interactor (log2),"RBM3, P98179",4.92
same,PRISMA enrichment of interactor (log2),"SERF2, P84101",5.67
same,PRISMA enrichment of interactor (log2),"SF1, Q15637",4.55
same,PRISMA enrichment of interactor (log2),"SFPQ, P23246",5.27
same,PRISMA enrichment of interactor (log2),"SMNDC1, O75940",4.45
same,PRISMA enrichment of interactor (log2),"STMN2, Q93045",3.82
same,PRISMA enrichment of interactor (log2),"SUGP1, Q8IWZ8",3.8
same,PRISMA enrichment of interactor (log2),"UQCRFS1, P47985",6.2
same,PRISMA enrichment of interactor (log2),"ZNF706, Q9Y5V0",3.75
same,PRISMA enrichment of interactor (log2),hCG_2014768,4.93
KDVFEELLSQWDAAL [RP11-140K17.3],PRISMA enrichment of interactor (log2),"ALYREF, Q86V81",7.18 ± 0.82
same,PRISMA enrichment of interactor (log2),"AP2A1, O95782",5.1
same,PRISMA enrichment of interactor (log2),"AP2B1, P63010",4.68
same,PRISMA enrichment of interactor (log2),"ATP5PO, P48047",5.2
same,PRISMA enrichment of interactor (log2),"BCKDK, O14874",4.2
same,PRISMA enrichment of interactor (log2),"C11orf98, E9PRG8",5.85
same,PRISMA enrichment of interactor (log2),"C12orf65, Q9H3J6",4.6
same,PRISMA enrichment of interactor (log2),"C19orf53, Q9UNZ5",8.26
same,PRISMA enrichment of interactor (log2),"CCDC137, Q6PK04",5.46
same,PRISMA enrichment of interactor (log2),"CCDC59, Q9P031",4.66
same,PRISMA enrichment of interactor (log2),"CCDC77, Q9BR77",5.97
same,PRISMA enrichment of interactor (log2),"CCDC86, Q9H6F5",4.93
same,PRISMA enrichment of interactor (log2),"CGGBP1, Q9UFW8",4.11
same,PRISMA enrichment of interactor (log2),"CHTOP, Q9Y3Y2",7.7
same,PRISMA enrichment of interactor (log2),"CLTA, P09496",5.09
same,PRISMA enrichment of interactor (log2),"CSNK1A1, P48729",5.77
same,PRISMA enrichment of interactor (log2),"CSNK1D, P48730",4.16
same,PRISMA enrichment of interactor (log2),"CSNK1E, P49674",4.74
same,PRISMA enrichment of interactor (log2),"CSRP2, Q16527",4.72
same,PRISMA enrichment of interactor (log2),"CXorf56, Q9H5V9",5.66
same,PRISMA enrichment of interactor (log2),"DECR1, Q16698",8.02
same,PRISMA enrichment of interactor (log2),"EMG1, Q92979",6.14
same,PRISMA enrichment of interactor (log2),"EP300, Q09472",4.25
same,PRISMA enrichment of interactor (log2),"FAM32A, Q9Y421",4.06
same,PRISMA enrichment of interactor (log2),"FAM83D, Q9H4H8",4.34
same,PRISMA enrichment of interactor (log2),"FBXO5, Q9UKT4",4.6
same,PRISMA enrichment of interactor (log2),"GABARAPL2, P60520",4.75
same,PRISMA enrichment of interactor (log2),"GAR1, Q9NY12",4.97
same,PRISMA enrichment of interactor (log2),"H1FX, Q92522",5.05
same,PRISMA enrichment of interactor (log2),"HIST1H1C, P16403",5.14

# 18 consecutive records already listed:
binder,measurement,setting,value
MVLGADAVWLWIAPY [GAS5],PRISMA enrichment of interactor (log2),"DERPC, P0CG12",5.11
same,PRISMA enrichment of interactor (log2),"EIF4H, Q15056",5.39
same,PRISMA enrichment of interactor (log2),"EWSR1, Q01844",7.24
same,PRISMA enrichment of interactor (log2),"FAM168B, A1KXE4",4.89
same,PRISMA enrichment of interactor (log2),"FKBP2, P26885",4.16
same,PRISMA enrichment of interactor (log2),"FUS, P35637",6.69
same,PRISMA enrichment of interactor (log2),"G3BP2, Q9UN86",6.04
same,PRISMA enrichment of interactor (log2),"GABARAPL2, P60520",5.98
same,PRISMA enrichment of interactor (log2),"GAR1, Q9NY12",4.73
same,PRISMA enrichment of interactor (log2),"HIRIP3, Q9BW71",5.22
same,PRISMA enrichment of interactor (log2),"HNRNPA0, Q13151",5.17
same,PRISMA enrichment of interactor (log2),"HNRNPA1, P09651",5.8
same,PRISMA enrichment of interactor (log2),"HNRNPA2B1, P22626",5
same,PRISMA enrichment of interactor (log2),"HNRNPA3, P51991",5.42
same,PRISMA enrichment of interactor (log2),"HNRNPU, Q00839",5.28
same,PRISMA enrichment of interactor (log2),"KHDRBS1, Q07666",6.63
same,PRISMA enrichment of interactor (log2),"LSM12, Q3MHD2",5.44
same,PRISMA enrichment of interactor (log2),"LSM14A, Q8ND56",4.4
